# From the supplement of paper PMC7666118
# Amino acid sequences for entries named in this document (tags omitted). A change or cut given only in a name is not applied to a line headed by its entry.
# UniProt Q9BXB4: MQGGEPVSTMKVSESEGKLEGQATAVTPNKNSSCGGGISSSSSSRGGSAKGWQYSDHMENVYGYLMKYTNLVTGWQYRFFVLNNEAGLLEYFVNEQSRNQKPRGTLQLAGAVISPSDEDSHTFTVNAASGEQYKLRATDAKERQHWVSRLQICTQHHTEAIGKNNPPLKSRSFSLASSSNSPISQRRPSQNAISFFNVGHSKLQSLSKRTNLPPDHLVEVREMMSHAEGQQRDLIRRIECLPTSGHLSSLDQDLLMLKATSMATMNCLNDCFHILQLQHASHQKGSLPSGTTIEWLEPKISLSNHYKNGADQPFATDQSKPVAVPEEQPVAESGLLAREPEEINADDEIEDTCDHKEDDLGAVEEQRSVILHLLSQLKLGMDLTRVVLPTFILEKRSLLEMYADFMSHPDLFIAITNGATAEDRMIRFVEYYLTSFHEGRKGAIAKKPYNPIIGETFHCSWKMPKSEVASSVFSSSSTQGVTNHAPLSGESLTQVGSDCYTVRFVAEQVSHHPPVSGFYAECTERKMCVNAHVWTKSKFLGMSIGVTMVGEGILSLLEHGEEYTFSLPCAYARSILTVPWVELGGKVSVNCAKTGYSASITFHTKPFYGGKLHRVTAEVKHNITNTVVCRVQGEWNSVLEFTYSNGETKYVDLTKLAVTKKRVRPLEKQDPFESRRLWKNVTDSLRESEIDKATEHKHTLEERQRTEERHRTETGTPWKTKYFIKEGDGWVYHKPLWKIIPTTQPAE
# UniProt Q9NXJ5: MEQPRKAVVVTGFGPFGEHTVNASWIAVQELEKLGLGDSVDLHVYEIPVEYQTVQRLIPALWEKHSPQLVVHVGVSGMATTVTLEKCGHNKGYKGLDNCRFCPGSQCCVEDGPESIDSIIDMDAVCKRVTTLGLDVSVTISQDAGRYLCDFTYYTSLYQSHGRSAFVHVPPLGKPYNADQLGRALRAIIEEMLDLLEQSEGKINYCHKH
# UniProt P30101, whole entry: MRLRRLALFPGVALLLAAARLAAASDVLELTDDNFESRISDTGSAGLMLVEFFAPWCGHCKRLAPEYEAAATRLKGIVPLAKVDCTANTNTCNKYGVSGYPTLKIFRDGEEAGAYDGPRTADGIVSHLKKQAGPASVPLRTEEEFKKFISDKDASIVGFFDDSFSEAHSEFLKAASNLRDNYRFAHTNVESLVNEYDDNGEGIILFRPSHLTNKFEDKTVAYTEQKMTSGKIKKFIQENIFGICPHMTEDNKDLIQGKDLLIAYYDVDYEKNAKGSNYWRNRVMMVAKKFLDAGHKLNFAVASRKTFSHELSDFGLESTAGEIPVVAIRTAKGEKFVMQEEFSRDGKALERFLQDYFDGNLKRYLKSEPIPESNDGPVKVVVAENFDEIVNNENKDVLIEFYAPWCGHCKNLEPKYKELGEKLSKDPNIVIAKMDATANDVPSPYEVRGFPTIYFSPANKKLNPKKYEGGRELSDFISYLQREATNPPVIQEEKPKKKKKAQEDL
# UniProt Q9Y263: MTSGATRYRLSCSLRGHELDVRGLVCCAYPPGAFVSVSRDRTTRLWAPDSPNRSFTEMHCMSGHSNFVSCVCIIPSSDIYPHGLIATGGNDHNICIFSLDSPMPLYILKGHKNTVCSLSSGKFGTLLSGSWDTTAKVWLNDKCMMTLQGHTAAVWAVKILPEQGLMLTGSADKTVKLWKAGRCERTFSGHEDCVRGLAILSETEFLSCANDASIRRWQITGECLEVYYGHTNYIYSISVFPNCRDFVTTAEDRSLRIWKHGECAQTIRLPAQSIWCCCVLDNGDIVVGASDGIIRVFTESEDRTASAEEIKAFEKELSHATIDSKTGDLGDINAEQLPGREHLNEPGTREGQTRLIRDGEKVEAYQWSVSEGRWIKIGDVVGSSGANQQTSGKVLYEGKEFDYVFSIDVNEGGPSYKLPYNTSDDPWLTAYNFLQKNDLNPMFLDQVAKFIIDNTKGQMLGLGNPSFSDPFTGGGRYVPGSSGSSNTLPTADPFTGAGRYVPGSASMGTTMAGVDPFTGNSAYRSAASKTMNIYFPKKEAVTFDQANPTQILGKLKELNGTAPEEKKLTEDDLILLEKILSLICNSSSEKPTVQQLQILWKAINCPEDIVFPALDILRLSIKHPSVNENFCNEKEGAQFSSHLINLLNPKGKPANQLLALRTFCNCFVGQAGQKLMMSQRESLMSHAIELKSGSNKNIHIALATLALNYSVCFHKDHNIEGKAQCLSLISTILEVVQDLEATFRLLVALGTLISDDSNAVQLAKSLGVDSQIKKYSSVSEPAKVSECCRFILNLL
# UniProt Q8IZ21: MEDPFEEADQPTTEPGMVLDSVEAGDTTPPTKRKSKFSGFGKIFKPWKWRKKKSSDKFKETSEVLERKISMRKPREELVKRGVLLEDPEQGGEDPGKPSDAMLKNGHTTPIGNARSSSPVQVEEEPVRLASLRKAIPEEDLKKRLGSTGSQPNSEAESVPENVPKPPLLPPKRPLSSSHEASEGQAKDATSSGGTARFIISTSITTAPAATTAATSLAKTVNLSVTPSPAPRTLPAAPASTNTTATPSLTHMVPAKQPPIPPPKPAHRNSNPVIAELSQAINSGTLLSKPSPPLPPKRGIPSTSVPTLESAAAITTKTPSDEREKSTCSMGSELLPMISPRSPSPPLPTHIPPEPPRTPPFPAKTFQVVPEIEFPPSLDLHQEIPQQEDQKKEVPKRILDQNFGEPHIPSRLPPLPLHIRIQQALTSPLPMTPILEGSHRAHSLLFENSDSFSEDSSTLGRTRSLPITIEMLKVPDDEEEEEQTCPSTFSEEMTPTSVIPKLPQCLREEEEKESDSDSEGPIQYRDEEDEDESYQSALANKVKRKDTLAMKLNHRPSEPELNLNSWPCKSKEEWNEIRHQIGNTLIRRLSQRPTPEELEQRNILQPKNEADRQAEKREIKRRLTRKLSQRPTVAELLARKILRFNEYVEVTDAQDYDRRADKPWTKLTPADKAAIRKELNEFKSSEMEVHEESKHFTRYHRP
# UniProt Q99471, whole entry: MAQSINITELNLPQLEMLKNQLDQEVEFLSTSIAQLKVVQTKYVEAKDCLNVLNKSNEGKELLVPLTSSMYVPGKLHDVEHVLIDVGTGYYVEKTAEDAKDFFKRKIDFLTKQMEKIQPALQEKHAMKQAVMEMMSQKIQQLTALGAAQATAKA
# UniProt Q13393: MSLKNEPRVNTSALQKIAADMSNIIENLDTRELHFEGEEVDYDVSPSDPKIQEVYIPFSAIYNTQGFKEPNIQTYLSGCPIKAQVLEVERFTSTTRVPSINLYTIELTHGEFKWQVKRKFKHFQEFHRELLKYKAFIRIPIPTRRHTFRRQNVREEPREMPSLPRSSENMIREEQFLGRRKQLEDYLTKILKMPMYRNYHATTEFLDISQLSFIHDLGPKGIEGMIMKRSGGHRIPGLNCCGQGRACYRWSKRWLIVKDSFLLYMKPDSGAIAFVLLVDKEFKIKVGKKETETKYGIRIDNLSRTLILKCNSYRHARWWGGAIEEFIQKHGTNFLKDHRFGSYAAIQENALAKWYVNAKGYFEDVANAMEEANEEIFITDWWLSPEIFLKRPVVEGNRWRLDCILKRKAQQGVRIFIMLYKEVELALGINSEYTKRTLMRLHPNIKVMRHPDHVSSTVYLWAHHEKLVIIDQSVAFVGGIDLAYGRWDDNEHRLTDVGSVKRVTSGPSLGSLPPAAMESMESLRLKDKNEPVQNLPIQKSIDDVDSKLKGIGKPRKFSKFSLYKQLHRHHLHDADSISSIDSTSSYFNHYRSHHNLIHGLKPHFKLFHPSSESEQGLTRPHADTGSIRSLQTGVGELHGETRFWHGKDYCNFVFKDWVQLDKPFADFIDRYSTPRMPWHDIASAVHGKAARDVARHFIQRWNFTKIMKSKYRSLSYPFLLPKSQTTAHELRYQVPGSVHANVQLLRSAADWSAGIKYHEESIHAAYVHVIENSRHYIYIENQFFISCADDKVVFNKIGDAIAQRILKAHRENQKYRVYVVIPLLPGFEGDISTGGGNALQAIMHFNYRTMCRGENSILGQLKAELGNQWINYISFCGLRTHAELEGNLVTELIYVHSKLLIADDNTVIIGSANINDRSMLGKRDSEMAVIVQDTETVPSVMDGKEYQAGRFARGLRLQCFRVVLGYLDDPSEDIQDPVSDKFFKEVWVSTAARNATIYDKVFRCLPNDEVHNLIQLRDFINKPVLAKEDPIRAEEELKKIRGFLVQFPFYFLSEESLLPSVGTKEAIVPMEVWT
# UniProt Q9Y2I7: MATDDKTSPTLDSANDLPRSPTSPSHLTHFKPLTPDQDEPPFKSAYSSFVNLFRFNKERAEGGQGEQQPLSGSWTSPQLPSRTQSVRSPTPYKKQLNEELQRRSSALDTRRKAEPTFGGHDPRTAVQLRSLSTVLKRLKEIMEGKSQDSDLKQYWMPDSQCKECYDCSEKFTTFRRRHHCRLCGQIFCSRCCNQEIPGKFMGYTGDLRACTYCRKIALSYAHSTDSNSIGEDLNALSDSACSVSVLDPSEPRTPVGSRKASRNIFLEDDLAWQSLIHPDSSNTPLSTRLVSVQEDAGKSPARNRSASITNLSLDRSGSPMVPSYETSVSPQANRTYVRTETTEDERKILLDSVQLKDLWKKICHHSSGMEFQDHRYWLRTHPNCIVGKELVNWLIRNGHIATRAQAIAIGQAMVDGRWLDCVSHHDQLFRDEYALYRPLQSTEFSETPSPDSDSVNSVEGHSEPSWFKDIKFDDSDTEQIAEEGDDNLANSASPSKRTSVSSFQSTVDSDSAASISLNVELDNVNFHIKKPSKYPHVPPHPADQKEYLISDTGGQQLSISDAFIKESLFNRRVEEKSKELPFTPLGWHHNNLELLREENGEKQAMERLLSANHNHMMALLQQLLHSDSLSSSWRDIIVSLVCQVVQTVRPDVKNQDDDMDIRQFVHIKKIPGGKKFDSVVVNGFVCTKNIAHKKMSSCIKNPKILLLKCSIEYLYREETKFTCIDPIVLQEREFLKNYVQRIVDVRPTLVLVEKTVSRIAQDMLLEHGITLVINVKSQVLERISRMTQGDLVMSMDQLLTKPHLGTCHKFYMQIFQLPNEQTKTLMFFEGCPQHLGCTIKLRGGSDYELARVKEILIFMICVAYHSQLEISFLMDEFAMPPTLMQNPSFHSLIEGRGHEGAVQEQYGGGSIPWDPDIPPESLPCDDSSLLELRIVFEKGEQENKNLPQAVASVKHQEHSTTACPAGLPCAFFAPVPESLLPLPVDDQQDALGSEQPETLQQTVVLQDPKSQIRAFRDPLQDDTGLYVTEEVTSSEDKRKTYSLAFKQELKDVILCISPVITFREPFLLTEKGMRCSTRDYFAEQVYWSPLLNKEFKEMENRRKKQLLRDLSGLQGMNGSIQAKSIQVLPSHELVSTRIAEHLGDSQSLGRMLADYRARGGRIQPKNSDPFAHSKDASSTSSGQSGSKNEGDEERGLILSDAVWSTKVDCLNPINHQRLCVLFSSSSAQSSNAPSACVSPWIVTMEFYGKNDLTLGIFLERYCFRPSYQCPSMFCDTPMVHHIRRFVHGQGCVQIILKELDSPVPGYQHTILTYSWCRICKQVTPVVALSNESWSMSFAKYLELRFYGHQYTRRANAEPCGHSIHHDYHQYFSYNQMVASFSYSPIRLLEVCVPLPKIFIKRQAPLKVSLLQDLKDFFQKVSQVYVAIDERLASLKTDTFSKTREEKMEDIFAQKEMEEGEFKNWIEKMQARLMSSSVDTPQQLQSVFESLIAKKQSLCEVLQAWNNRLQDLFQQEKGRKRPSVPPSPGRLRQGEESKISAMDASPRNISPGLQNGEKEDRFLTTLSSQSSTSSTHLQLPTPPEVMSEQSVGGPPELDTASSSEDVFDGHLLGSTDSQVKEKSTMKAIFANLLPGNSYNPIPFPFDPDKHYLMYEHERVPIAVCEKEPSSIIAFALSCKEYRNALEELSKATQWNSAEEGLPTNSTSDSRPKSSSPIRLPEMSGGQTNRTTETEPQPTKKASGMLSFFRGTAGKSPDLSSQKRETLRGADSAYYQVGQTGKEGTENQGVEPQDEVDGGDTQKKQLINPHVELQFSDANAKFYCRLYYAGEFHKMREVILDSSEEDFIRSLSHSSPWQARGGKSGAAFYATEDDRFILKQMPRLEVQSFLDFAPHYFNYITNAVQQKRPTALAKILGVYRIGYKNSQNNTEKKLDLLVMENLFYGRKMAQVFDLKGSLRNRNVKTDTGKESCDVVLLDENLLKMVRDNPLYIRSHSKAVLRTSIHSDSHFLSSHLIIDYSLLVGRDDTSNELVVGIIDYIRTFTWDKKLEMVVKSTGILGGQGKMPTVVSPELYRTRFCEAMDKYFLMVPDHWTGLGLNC
# UniProt P48739: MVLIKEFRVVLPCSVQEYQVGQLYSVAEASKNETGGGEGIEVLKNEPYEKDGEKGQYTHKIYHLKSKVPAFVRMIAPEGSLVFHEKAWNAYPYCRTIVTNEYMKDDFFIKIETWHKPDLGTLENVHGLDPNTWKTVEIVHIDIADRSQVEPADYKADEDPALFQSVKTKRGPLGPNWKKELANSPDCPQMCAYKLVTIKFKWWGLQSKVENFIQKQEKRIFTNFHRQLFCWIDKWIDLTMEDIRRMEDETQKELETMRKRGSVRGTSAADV
# Some of the results follow.
# Compound: COc1ccc(Cn2ccc3cc(C)c(C(=O)NO)cc32)cc1
# Test: dose-dependent thermal stabilisation call (2D-TPP, DLPTP, 10% FDR) (binary (1 = stabilised)); higher = stabilised by the compound
# Conditions: system: HL-60 intact cells; concentration range 0.04-10 µM
# Experimental: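 2D thermal proteome profiling in intact HL-60 cells treated with BRD-3811 (0, 0.04, 0.29, 2, 10 uM) for 90 min at 37 C, then heated 3 min at one of 12 temperatures (42-63.9 C). Soluble protein was quantified by TMT10 MS. The value is the DLPTP call of the paper: dose-dependent thermal stabilisation over all temperatures at 10% FDR (F-test of a dose-response against a flat model); one experiment, one call per tested protein.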
row,Target,dose-dependent thermal stabilisation call
1,OSBPL11 (UniProt Q9BXB4),inactive: 0
2,PGP (UniProt A6NDG6),inactive: 0
3,PITRM1 (UniProt Q5JRX3),inactive: 0
4,OXCT1 (UniProt P55809),inactive: 0
5,P4HB (UniProt P07237),inactive: 0
6,P2RX7 (UniProt Q99572),inactive: 0
7,PFAS (UniProt O15067),inactive: 0
8,PBK (UniProt Q96KB5),inactive: 0
9,PGPEP1 (UniProt Q9NXJ5),inactive: 0
10,PICALM (UniProt Q13492),inactive: 0
11,PIGT (UniProt Q969N2),inactive: 0
12,PDIA3 (UniProt P30101),inactive: 0
13,PLAA (UniProt Q9Y263),inactive: 0
14,PAK1 (UniProt Q13153),inactive: 0
15,PEX11B (UniProt O96011),inactive: 0
16,PAPD4 (UniProt Q6PIY7),inactive: 0
17,PAG1 (UniProt Q9NWQ8),inactive: 0
18,PHACTR4 (UniProt Q8IZ21),inactive: 0
19,OGFOD1 (UniProt Q8N543),inactive: 0
20,PLAUR (UniProt Q03405),inactive: 0

# Reformatted bar-delimited: entries from further up
row | Target | dose-dependent thermal stabilisation call
9 | PGPEP1 (UniProt Q9NXJ5) | inactive: 0
10 | PICALM (UniProt Q13492) | inactive: 0
11 | PIGT (UniProt Q969N2) | inactive: 0
12 | PDIA3 (UniProt P30101) | inactive: 0
13 | PLAA (UniProt Q9Y263) | inactive: 0
14 | PAK1 (UniProt Q13153) | inactive: 0
15 | PEX11B (UniProt O96011) | inactive: 0
16 | PAPD4 (UniProt Q6PIY7) | inactive: 0
17 | PAG1 (UniProt Q9NWQ8) | inactive: 0

# (cont.)

row,Target,dose-dependent thermal stabilisation call
1,PHKB (UniProt Q93100),inactive: 0
2,P76,inactive: 0
3,PCK2 (UniProt Q16822),inactive: 0
4,PFDN5 (UniProt Q99471),inactive: 0
5,PLD1 (UniProt Q13393),inactive: 0
6,PGK2 (UniProt P07205),inactive: 0
7,PLCB2 (UniProt Q00722),inactive: 0
8,PIBF1 (UniProt Q8WXW3),inactive: 0
9,PAN3 (UniProt Q58A45),inactive: 0
10,PEX14 (UniProt O75381),inactive: 0
11,PARL (UniProt Q9H300),inactive: 0
12,PJA2 (UniProt O43164),inactive: 0
13,PAFAH1B1 (UniProt P43034),inactive: 0
14,PCYT2 (UniProt Q99447),inactive: 0
15,PARP10 (UniProt Q53GL7),inactive: 0
16,PIGG (UniProt Q5H8A4),inactive: 0
17,PIGO (UniProt Q8TEQ8),inactive: 0
18,PIP5K3 (UniProt Q9Y2I7),inactive: 0
19,PLOD3 (UniProt O60568),inactive: 0
20,PITPNB (UniProt P48739),inactive: 0
